Reference: patent US11667697
Results are given in words; binding and its absence hold for the method and conditions named. Some results given as binding are weak or reduced against the parent protein; the word gives no strength.

B1: MPXV-39 (antibody, V domains shown)
VH: QVQLQQWGAGLLKPSETLSLTCAIYGGSLSGQYWSWIRQPPGRGLEWIGEIHHKGRTNYNPSLKSRVTISIDTSQRQFSLRLTSVSAADTAVYYCASGNYRLGQGTLVTF
VL: DVVLTQSPLTLPVTLGQPASISCRSSQSLVYSDGDTYLNWFQQRPGQAPRRLIYKVSKRDFGVPDRFSGSGSGTDFTLRISRVEAEDVGVYYCMQGTHWPRTFGQGTQVDIK
B2: VACV-315 (antibody, V domains shown)
VH: EVQLLESGGGLVQPGGSLKLSCAASGFIFSNYAMGWVRQAPGKGLEWVSALSASDGVTSYADSVKGRFTISRDNSKNTMYLQMNRLRTEDTAIYFCAKGRARVNNIYRYFDHWGQGTLVTVSS
VL: QSVLTQPASVSGSPGQSITISCTGTSSDVGAYTFVSWYQHHPGKAPKLIIYEVSNRPSGVSDRFSGSKSGNTASLTISGLQAEDEADYYCNSYTTTSPWVFGGGTQLTVL
B3: MPXV-79 (antibody, V domains shown)
VH: QVQLVQSGAEVKKPGASVKVSCKASGYSFRSNGISWVRQAPGQGFEWLGWIAAYNGDTKYVQKFQGRLTMTTDTSTDTAYMELWSLRSDDTAVYYCARDPKLGRKGSAFDIWGQGTLVIVSS
VL: EIVLTQSPATLSLSPGGRATLSCRASQSVGNYLTWYQQKPGQAPRLLIFDGSTRATGIPARFSGSGSGTDFTLTISSLEPEDFAVYYCLQRSDLYTFGQGTKVDIK

Assays:
[1] = target: VACV A33 protein (vaccinia virus) (UniProt P68617); test: antigen ELISA/array/BLI
[2] = target: VACV H3 protein (vaccinia virus) (UniProt P07240); test: lysate ELISA
[3] = target: VACV H3 protein (vaccinia virus) (UniProt P07240); test: antigen ELISA/array/BLI

Binder	binding [1]	binding [2]	binding [3]
B1	binds		
B2		binds	binds
B3		binds	binds
